One molecule from PMC4516353 can be followed below.

These are yes or no findings as the source states them, for the method shown. Binding seen in cells or lysates may run through a third protein. Here binding means that the protein was enriched with, or labelled near, the bait; the list need not be complete. Where a sequence is shown, tags or fusion partners need not be part of it.

This test deals with T1, E2Tag-WBSCR22 (stably expressed in U2OS cells) (human) (UniProt O43709).
T1 sequence: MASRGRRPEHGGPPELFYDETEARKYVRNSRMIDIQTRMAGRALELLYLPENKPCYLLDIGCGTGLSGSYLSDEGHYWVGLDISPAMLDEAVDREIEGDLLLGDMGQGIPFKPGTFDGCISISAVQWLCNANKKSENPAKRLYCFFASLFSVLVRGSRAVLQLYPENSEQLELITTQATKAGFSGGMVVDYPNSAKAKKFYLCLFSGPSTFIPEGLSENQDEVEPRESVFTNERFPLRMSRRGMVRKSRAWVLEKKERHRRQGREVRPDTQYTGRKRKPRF
Put plainly: affinity purification with mass spectrometry; SILAC-coupled co-immunoprecipitation from U2OS-E2Tag-WBSCR22 (heavy) against U2OS (mock) lysates; protein G beads with anti-E2Tag antibody 5E11, 4°C overnight; IP buffer 10 mM Tris pH 7.5, 100 mM KCl, 2 mM MgCl2, 1 mM DTT, 0.5% NP-40; LC-MS/MS.

B1: TRMT112 (endogenous, U2OS cells) (protein, UniProt Q9UI30 1-125)
chain: MKLLTHNLLSSHVRGVGSRGFPLRLQATEVRICPVEFNPNFVARMIPKVEWSAFLEAADNLRLIQVPKGPVEGYEENEEFLRTMHHLLLEVEVIEGTLQCPESGRMFPISRGIPNMLLSEEETES
On to B1, for which the binding entry was “binds”.
